Experiment [1] has as its target T1, Myc-tagged hDDX18 (human) (UniProt Q9NVP1).
T1 sequence: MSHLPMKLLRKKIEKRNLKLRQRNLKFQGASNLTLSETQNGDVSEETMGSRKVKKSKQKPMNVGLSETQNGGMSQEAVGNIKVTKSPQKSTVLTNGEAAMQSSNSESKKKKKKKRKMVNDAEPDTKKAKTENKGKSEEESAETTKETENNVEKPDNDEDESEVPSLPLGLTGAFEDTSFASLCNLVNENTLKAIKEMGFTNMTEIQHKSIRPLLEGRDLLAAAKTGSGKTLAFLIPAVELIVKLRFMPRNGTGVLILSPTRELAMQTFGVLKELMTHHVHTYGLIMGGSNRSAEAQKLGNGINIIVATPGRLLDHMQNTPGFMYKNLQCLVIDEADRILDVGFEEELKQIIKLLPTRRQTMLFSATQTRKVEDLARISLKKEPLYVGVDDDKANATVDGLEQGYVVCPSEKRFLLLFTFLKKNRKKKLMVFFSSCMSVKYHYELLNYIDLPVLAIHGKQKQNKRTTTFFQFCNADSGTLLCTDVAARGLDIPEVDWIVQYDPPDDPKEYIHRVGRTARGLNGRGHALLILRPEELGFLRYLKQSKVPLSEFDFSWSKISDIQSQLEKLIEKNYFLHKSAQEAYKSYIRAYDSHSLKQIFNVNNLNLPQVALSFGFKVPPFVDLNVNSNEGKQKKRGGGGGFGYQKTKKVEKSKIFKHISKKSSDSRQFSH
As to the kind of experiment: co-IP.

Experiment [2] concerns the target T2, Flag-tagged IRF3 (human IRF3) (human) (UniProt Q14653).
T2 sequence: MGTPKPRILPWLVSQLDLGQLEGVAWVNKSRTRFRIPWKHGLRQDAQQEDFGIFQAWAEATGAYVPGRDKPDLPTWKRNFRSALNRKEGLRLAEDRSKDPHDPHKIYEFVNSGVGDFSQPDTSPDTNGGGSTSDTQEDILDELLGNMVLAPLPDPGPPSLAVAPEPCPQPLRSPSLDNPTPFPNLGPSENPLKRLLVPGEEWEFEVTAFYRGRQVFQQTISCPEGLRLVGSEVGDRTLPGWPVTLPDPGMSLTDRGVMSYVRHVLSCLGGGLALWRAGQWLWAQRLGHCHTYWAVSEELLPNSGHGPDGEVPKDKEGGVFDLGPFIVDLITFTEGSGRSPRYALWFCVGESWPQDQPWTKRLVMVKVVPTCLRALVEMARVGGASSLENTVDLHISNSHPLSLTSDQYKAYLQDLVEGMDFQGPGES
As to the kind of experiment: co-IP.

Results are given in words; binding and its absence hold for the method and conditions named. In cells and extracts the contact can be indirect. Some binding calls cover weakened binding; strength is not graded here. Where a sequence is shown, tags or fusion partners need not be part of it.

B1: Flag-tagged IRF3 (human IRF3) (protein, UniProt Q14653 1-427)
chain: T2 sequence
In the case of B1, the binding result in experiment [1] is “binds”.

B2: Myc-tagged hDDX18 (protein, UniProt Q9NVP1 1-670)
chain: T1 sequence
Consider B2, for which the binding entry in experiment [2] was “binds”.
